Where two headings read alike, the source gives them in different places. These are yes or no findings as the source states them, for the method shown. Binding seen in cells or lysates may run through a third protein. A yes stands for co-enrichment or nearness to the bait. Other partners may have been found. For part of these data: Tags and fused reporters may be left off the sequences shown.

Common to all, as to assay: affinity purification with mass spectrometry
The target in assay [1] is GFP-tagged virulence complex assembly protein 1 (VCAP1-GFP) (P. falciparum 3D7) (UniProt Q8IEJ0).
Assay [2] deals with GFP-tagged membrane-associated histidine-rich protein 1 (MAHRP1-GFP) (P. falciparum 3D7) (UniProt C0H5L9).
Assay [3] has as its target T1, GFP-tagged ring exported protein 1 (REX1-GFP) (P. falciparum 3D7) (UniProt Q8I2G1).
T1 sequence: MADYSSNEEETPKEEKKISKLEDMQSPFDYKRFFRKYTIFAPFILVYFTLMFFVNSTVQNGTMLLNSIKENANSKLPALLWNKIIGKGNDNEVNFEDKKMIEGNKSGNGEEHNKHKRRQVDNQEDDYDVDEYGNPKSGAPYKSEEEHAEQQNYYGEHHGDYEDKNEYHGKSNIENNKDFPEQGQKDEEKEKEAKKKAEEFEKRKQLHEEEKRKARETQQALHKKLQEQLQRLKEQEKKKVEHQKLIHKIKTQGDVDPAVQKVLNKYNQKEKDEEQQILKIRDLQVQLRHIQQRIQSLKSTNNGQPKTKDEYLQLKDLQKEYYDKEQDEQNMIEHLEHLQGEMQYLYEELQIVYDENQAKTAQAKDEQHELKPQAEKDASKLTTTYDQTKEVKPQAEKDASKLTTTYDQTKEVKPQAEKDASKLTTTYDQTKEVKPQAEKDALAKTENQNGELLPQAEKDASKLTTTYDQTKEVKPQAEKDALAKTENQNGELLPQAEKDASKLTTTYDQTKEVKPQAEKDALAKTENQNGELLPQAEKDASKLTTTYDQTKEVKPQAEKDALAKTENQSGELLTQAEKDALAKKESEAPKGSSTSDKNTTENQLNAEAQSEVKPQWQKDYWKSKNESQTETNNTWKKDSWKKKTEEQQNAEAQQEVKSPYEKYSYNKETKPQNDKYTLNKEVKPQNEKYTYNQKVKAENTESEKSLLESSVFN

In assay [4] the target is GFP-tagged GEXP10 (GEXP10-GFP) (P. falciparum 3D7) (UniProt Q8I2D9).
The target of assay [5] is GFP-tagged PTP5 (PTP5-GFP) (P. falciparum 3D7) (UniProt Q8IK15).
Assay [6] deals with GFP-tagged PTP6 (PTP6-GFP) (P. falciparum 3D7).
For assay [7], the target named is GFP-tagged PF3D7_1353100 (PF3D7_1353100-GFP) (P. falciparum 3D7) (UniProt Q8IDG9).
The target of assay [8] is T1, GFP-tagged ring exported protein 1 (REX1-GFP) (P. falciparum 3D7). This is another data set of the same source.
The target in assay [9] is GFP-tagged PTP5 (PTP5-GFP) (P. falciparum 3D7) (UniProt Q8IK15). The source holds these as a separate data set.

With “GEXP10, endogenous (from UniProt Q8I2D9)”, the binding entry in assay [1] and in assay [2] was “binds” in each case.
Turning to “P. falciparum erythrocyte membrane protein 1 (PfEMP1)”, the binding result in [3] is “binds”.
On to Pf322 (from UniProt Q8IHN4 1-6093), for which, in [1], the binding result was “binds”.
With “membrane-associated histidine-rich protein 1 (MAHRP1), endogenous (from UniProt C0H5L9 1-249)”, the binding entry in assay [1] and in assay [4] was “binds” throughout.
For “parasite-infected erythrocyte surface protein 2 (PIESP2) (from UniProt Q8I488)”, the binding entry in [2], in [4] and in assay [5] was “binds” throughout.
Take “virulence complex assembly protein 1 (VCAP1), endogenous (from UniProt Q8IEJ0)”: the binding result in assay [2] and in assay [4] was “binds” in each case.

B1: PF3D7_0702500 (protein, UniProt Q8IC42 1-253)
chain: MAYPLLEDDLRSIRVAFGTCPGNSTMQFGERFWQGFFFGVIIFFVLSKYIRSYKKRKGMRILKSSSVTKGRLYRGTVFDEDDNVDGHHKKTKAHGLFEEIEKRNGFDLNDDTTNSNNLGEGTHSAVHNLDGQKESQLYKNNSDGSTENHLSGSNSDGRNSSQHSVGSHSVSSQEHKKEHSTHDLPAGRNYSLGNLSTGTTSQGSTSSRHYSLGGQPSSSGRSFSGSKYNTSNLASSSTTESSVSGLNTNEAHV
For the molecule B1, the binding entry in assay [6] is recorded as “binds”.

B2: membrane-associated histidine-rich protein 2 (MAHRP2) (protein, UniProt Q8IDG8 1-137)
chain: MQPCPYDVYNQINHVGTHWAQHLGEHLHHLAHMHQHTPHVHHHIPHVHTLAHDRPCMPITAFFCRHHEHCSSHLMLIFLLLAFFLVVVYRLYNEVVNSAKTVRIVNITPVNEEHKAEASKEQSKSTSDSSTSTQQTL
With B2, the binding result in assay [7] and in [8] was “binds” throughout.

B3: ring exported protein 1 (REX1), endogenous (protein, UniProt Q8I2G1 1-713)
chain: T1 sequence
On to B3, for which the binding entry in assay [9] is reported as “binds”.

(Values after article doi:10.1101/741033.)
